Experimental data from the supplement of paper PMC4604168 (melanoma cell lines).
The other results are listed elsewhere or left out. Many values rest on one well or one pass, so single values are uncertain.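 Cells were imaged in 1,536-well plates, and nuclei stained with an antibody against cleaved PARP were counted against all DNA-stained nuclei to give the apoptosis fraction. Screening doses were chosen to leave most cells alive, and resting and induced cleaved-PARP levels differ strongly between cell lines.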

Key:
Assay in all cases: cleaved PARP positive nuclei fraction relative to DMSO control; melanoma cells; higher = more apoptosis
Details in all cases: library dose: low library concentration; 72 h
501Mel = tested on: 501Mel
A101D = tested on: A101D
A2058 = tested on: A2058
A375 = tested on: A375
C32 = tested on: C32
CBRC008 = tested on: CBRC008 (line from a melanoma biopsy)
CBRC014 = tested on: CBRC014 (line from a melanoma biopsy)
CBRC016 = tested on: CBRC016 (line from a melanoma biopsy)
CBRC017 = tested on: CBRC017 (line from a melanoma biopsy)
CBRC034 = tested on: CBRC034 (line from a melanoma biopsy)
COLO792 = tested on: COLO792
COLO800 = tested on: COLO800
COLO829 = tested on: COLO829
G361 = tested on: G361
IPC-298 = tested on: IPC-298
IST-MEL1 = tested on: IST-MEL1
LB2518-MEL = tested on: LB2518-MEL
LOXIMVI = tested on: LOXIMVI
MEL-HO = tested on: MEL-HO

Row | SMILES | cleaved PARP positive nuclei fraction (501Mel) [%] | cleaved PARP positive nuclei fraction (A101D) [%] | cleaved PARP positive nuclei fraction (A2058) [%] | cleaved PARP positive nuclei fraction (A375) [%] | cleaved PARP positive nuclei fraction (C32) [%] | cleaved PARP positive nuclei fraction (CBRC008) [%] | cleaved PARP positive nuclei fraction (CBRC014) [%] | cleaved PARP positive nuclei fraction (CBRC016) [%] | cleaved PARP positive nuclei fraction (CBRC017) [%] | cleaved PARP positive nuclei fraction (CBRC034) [%] | cleaved PARP positive nuclei fraction (COLO792) [%] | cleaved PARP positive nuclei fraction (COLO800) [%] | cleaved PARP positive nuclei fraction (COLO829) [%] | cleaved PARP positive nuclei fraction (G361) [%] | cleaved PARP positive nuclei fraction (IPC-298) [%] | cleaved PARP positive nuclei fraction (IST-MEL1) [%] | cleaved PARP positive nuclei fraction (LB2518-MEL) [%] | cleaved PARP positive nuclei fraction (LOXIMVI) [%] | cleaved PARP positive nuclei fraction (MEL-HO) [%]
1 | CCCS(=O)(=O)Nc1ccc(F)c(C(=O)c2c[nH]c3ncc(Cl)cc23)c1F + Clc1ccc(Nc2nnc(Cc3ccncc3)c3ccccc23)cc1 [vatalanib] (first compound 0.08 µM, partner dose 2 µM) | 50.3 | 105 | 39.9 | 267 | 88.1 | 197 | 134 | 145 | 114 | 143 | 37.7 | 93.3 | 76.5 | 61.7 | 96.7 | 123 | 92.2 | 112 | 264
2 | Cc1cc(Nc2cc(N3CCN(C)CC3)nc(/C=C/c3ccccc3)n2)n[nH]1 + Nc1ccn([C@@H]2O[C@H](CO)[C@@H](O)C2(F)F)c(=O)n1 [gemcitabine] (first compound 0.04 µM, partner dose 0.0004 µM) | 63.7 | 95.7 | 110 | 98.5 | 153 | 61.8 | 134 | 87.1 | 194 | 280 | 63.5 | 90.8 | 89.3 | 75.1 | 115 | 243 | 106 | 93.5 | 121
3 | CC(C)C[C@H](NC(=O)[C@H](Cc1ccccc1)NC(=O)c1cnccn1)B(O)O [Bortezomib] + OCc1c[nH]c2ccccc12 [Indole-3-carbinol] (first compound 0.001 µM, partner dose 0.8 µM) | 706 | 1950 | 69.8 | 150 | 91.4 | 749 | 175 | 372 | 93.2 | 242 | 83.7 | 72.7 | 65.6 | 1210 | 51 | 292 | 234 | 134 | 42.2
4 | O=C(O)[C@@H]1[O][Sb](=[O])([O][Sb]2(=[O])[O][C@H]([C@H](O)CO)[C@H](O)[C@H](C(=O)O)[O]2)[O][C@H]([C@H](O)CO)[C@@H]1O (some centres undefined) [stibogluconate] + OCc1c[nH]c2ccccc12 [Indole-3-carbinol] (first compound 2 µM, partner dose 0.8 µM) | 221 | 30.1 | 51.3 | 103 | 77.6 | 129 | 79.4 | 90 | 68.2 | 44.5 | 48.2 | 132 | 184 | 95.2 | 59.5 | 269 | 85.9 | 127 | 44.8
5 | O=C(O)[C@@H]1[O][Sb](=[O])([O][Sb]2(=[O])[O][C@H]([C@H](O)CO)[C@H](O)[C@H](C(=O)O)[O]2)[O][C@H]([C@H](O)CO)[C@@H]1O (some centres undefined) [stibogluconate] + Cn1c(Nc2ccc(C(F)(F)F)cc2)nc2cc(Oc3ccnc(-c4ncc(C(F)(F)F)[nH]4)c3)ccc21 [CHIR265] (first compound 2 µM, partner dose 0.08 µM) | 374 | 41.9 | 182 | 202 | 90.2 | 77.7 | 92.2 | 87.5 | 114 | 33.5 | 188 | 180 | 64 | 196 | 263 | 134 | 169 | 36.5 | 271
6 | Nc1ccn([C@@H]2O[C@H](CO)[C@@H](O)C2(F)F)c(=O)n1 [gemcitabine] + CCCS(=O)(=O)Nc1ccc(F)c(C(=O)c2c[nH]c3ncc(Cl)cc23)c1F [PLX4720] (first compound 0.0004 µM, partner dose 0.08 µM) | 42.8 | 251 | 191 | 198 | 253 | 61 | 157 | 163 | 104 | 97.5 | 58.3 | 76.3 | 56.2 | 61.9 | 107 | 123 | 109 | 109 | 227
7 | Cn1c(=O)n(-c2ccc(C(C)(C)C#N)cc2)c2c3cc(-c4cnc5ccccc5c4)ccc3ncc21 + CCCS(=O)(=O)Nc1ccc(F)c(C(=O)c2c[nH]c3ncc(Cl)cc23)c1F [PLX4720] (first compound 0.004 µM, partner dose 0.08 µM) | 95.2 | 253 | 128 | 161 | 80.5 | 30 | 97.8 | 43.2 | 94.1 | 52.3 | 126 | 105 | 133 | 133 | 66 | 268 | 99.2 | 209 | 104
8 | CNC(=O)c1cc(Oc2ccc(NC(=O)Nc3ccc(Cl)c(C(F)(F)F)c3)cc2)ccn1 [sorafenib] + C#Cc1cccc(Nc2ncnc3cc(OCCOC)c(OCCOC)cc23)c1 [erlotinib] (first compound 0.4 µM, partner dose 0.8 µM) | 62.9 | 171 | 102 | 122 | 90.8 | 167 | 93.4 | 18.2 | 78.3 | 74.1 | 107 | 102 | 38.7 | 85.8 | 193 | 186 | 87.5 | 54.1 | 120
9 | O=C(O)c1ccc2c(c1)nc(Nc1cccc(Cl)c1)c1ccncc12 + COCC[n+]1c2c(n(Cc3cnccn3)c1C)C(=O)c1ccccc1C2=O [YM155] (first compound 0.4 µM, partner dose 0.0004 µM) | 218 | 97.5 | 40.1 | 71.1 | 83.7 | 325 | 130 | 161 | 208 | 66.2 | 147 | 64.5 | 168 | 196 | 43.4 | 136 | 103 | 142 | 141
10 | CN1CCN(c2ccc3nc(-c4c(N)c5c(F)cccc5[nH]c4=O)[nH]c3c2)CC1 [Dovitinib] + O=C(O)c1ccc2c(c1)nc(Nc1cccc(Cl)c1)c1ccncc12 [CX4945] (first compound 0.1 µM, partner dose 0.4 µM) | 96.2 | 48.7 | 203 | 229 | 84.1 | 77.5 | 102 | 95 | 138 | 191 | 197 | 127 | 123 | 171 | 94.3 | 104 | 358 | 155 | 116
11 | CN1CCN(c2ccc3nc(-c4c(N)c5c(F)cccc5[nH]c4=O)[nH]c3c2)CC1 [Dovitinib] + C=C(c1ccc(C(=O)O)cc1)c1cc2c(cc1C)C(C)(C)CCC2(C)C [Bexarotene] (first compound 0.1 µM, partner dose 2 µM) | 133 | 90.4 | 289 | 253 | 90.4 | 149 | 112 | 88.3 | 151 | 97.2 | 80.5 | 59.7 | 162 | 50.9 | 91.9 | 202 | 259 | 101 | 228
12 | CN1CCN(c2ccc3nc(-c4c(N)c5c(F)cccc5[nH]c4=O)[nH]c3c2)CC1 [Dovitinib] + CC(=O)c1c(C)c2cnc(Nc3ccc(N4CCNCC4)cn3)nc2n(C2CCCC2)c1=O [palbociclib] (first compound 0.1 µM, partner dose 0.04 µM) | 266 | 40.5 | 459 | 231 | 87.1 | 57.6 | 106 | 84.9 | 101 | 63 | 190 | 134 | 82.6 | 51.5 | 47.7 | 133 | 146 | 172 | 49.6
13 | Cc1cc(Nc2cc(N3CCN(C)CC3)nc(/C=C/c3ccccc3)n2)n[nH]1 + CN1CCN(c2ccc3nc(-c4c(N)c5c(F)cccc5[nH]c4=O)[nH]c3c2)CC1 [Dovitinib] (first compound 0.04 µM, partner dose 0.1 µM) | 128 | 90.3 | 112 | 97.9 | 76 | 58.7 | 109 | 31.8 | 225 | 191 | 98.5 | 61.4 | 110 | 56.1 | 51.8 | 128 | 264 | 54.4 | 98.1
14 | Nc1ccn([C@@H]2O[C@H](CO)[C@@H](O)C2(F)F)c(=O)n1 [gemcitabine] + COCC[n+]1c2c(n(Cc3cnccn3)c1C)C(=O)c1ccccc1C2=O [YM155] (first compound 0.0004 µM, partner dose 0.0004 µM) | 107 | 49.1 | 115 | 123 | 135 | 118 | 164 | 167 | 161 | 85.8 | 91.5 | 39.6 | 82.6 | 189 | 56.3 | 90.2 | 114 | 37 | 78.4
15 | C=C(c1ccc(C(=O)O)cc1)c1cc2c(cc1C)C(C)(C)CCC2(C)C [Bexarotene] + Cn1c(Nc2ccc(C(F)(F)F)cc2)nc2cc(Oc3ccnc(-c4ncc(C(F)(F)F)[nH]4)c3)ccc21 [CHIR265] (first compound 2 µM, partner dose 0.08 µM) | 164 | 132 | 98.3 | 64.6 | 82.4 | 73.7 | 105 | 283 | 190 | 47.2 | 199 | 22 | 70.3 | 133 | 120 | 48.2 | 68 | 54 | 92.2
16 | O=C(O)c1ccc2c(c1)nc(Nc1cccc(Cl)c1)c1ccncc12 + C[C@]1(c2nc3c(C(N)=O)cccc3[nH]2)CCCN1 [Veliparib] (first compound 0.4 µM, partner dose 1.4 µM) | 30.7 | 80.7 | 260 | 150 | 82.3 | 26.2 | 168 | 146 | 189 | 310 | 87.3 | 106 | 141 | 211 | 68.6 | 250 | 53.1 | 115 | 47.1

Some values from the entries so far:
Entry of Cc1cc(Nc2cc(N3CCN(C)CC3)nc(/C=C/c3ccccc3)n2)n[nH]1 + CN1CCN(c2ccc3nc(-c4c(N)c5c(F)cccc5[nH]c4=O)[nH]c3c2)CC1 [Dovitinib] (first compound 0.04 µM, partner dose 0.1 µM) under cleaved PARP positive nuclei fraction (501Mel) [%]: 128
Entry of C=C(c1ccc(C(=O)O)cc1)c1cc2c(cc1C)C(C)(C)CCC2(C)C [Bexarotene] + Cn1c(Nc2ccc(C(F)(F)F)cc2)nc2cc(Oc3ccnc(-c4ncc(C(F)(F)F)[nH]4)c3)ccc21 [CHIR265] (first compound 2 µM, partner dose 0.08 µM) under cleaved PARP positive nuclei fraction (CBRC034) [%]: 47.2
